Assay results reported in publication PMC8580996, “2-Oxoglutarate derivatives can selectively enhance or inhibit the activity of human oxygenases” (Nature Communications, 2021).
Where “and” joins values, the source holds several entries; their conditions need not be identical. Identical values can stand only once. The source gives many values for each of these; only a part stands here.

Chains of the proteins cited; added tags and fusions are not shown. Lines headed by an entry give the natural chain unless they say otherwise; changes in a name come on top.
UniProt Q9NWT6: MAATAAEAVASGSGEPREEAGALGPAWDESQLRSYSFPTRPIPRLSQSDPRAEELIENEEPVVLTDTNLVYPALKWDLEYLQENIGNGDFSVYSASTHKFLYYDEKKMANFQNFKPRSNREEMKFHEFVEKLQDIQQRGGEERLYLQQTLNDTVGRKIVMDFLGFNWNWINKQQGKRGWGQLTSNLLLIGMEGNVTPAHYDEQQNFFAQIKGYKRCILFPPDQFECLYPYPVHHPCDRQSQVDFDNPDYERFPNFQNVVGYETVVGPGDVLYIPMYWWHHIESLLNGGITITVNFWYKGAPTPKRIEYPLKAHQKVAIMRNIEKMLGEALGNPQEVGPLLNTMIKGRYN

Columns and labels:
[1] = biological target: T1, FIH (Homo sapiens, UniProt Q9NWT6); assay: Competition assay in a single reaction vessel, FIH-catalyzed hydroxylation (SPE-MS); assay type: biochemical; conditions: Fig 2b, 20 μM 2OG
Procedure: Mean of three independent runs (n = 3; mean ± SD). […] Cosubstrates: a 20 μM 2OG; b 20 μM 2OG; c 20 μM 1; d 20 μM 12; e 20 μM 12 and 100 μM 2OG; f 100 μM 14. Source data are provided as a Source Data file.
Mean of three independent runs (n = 3; mean ± SD). […] Source data are provided as a Source Data file.
Peptide turnover was monitored by SPE-MS using the same instrument configuration (with the exception that the peptides were eluted from the SPE cartridge with 0.1%v/v aqueous formic acid in 80/20 v/v acetonitrile/water) as described above.
FIH and AspH-catalyzed peptide hydroxylations were analyzed simultaneously using SPE-MS as described in the
Methods section; competition experiments were performed in the same reaction vessel using equimolar 2OG
oxygenase and substrate concentrations. […]
Source data are provided as a Source Data file.
FIH and AspH-catalyzed peptide hydroxylations were analyzed simultaneously using SPE-
MS as described in the Methods section; competition experiments were performed in the same reaction vessel
using equimolar 2OG oxygenase and substrate concentrations. […]
2OG, 100 μM 14. Source data are provided as a Source Data file.

[2] = biological target: T1, FIH; assay: FIH steady-state kinetic parameters (SPE-MS, initial hydroxylation rates); assay type: biochemical
Procedure: Final 2OG/2OG derivative concentrations are given in Supplementary Figs. 5 and 6. Reactions were monitored with a rate of ~1 sample/40 s using the same SPE-MS configuration as described above. Data were analyzed as described above and the slopes of the initial reaction rates (Supplementary Figs. 5 and 6) fitted to a Michaelis–Menten plot using non-linear regression (GraphPad Prism 5). […]
determine kinetic parameters for 2OG derivatives (continues on the following page). Maximum velocities (vapp ) and Michaelis constants (Kapp) of FIH were determined in independent triplicates for 2OG and the 2OG […]
SPE-MS as described in the Methods section. […]
acid (LAA), and 20 μM ammonium iron(II) sulfate hexahydrate (FAS, (NH4)2Fe(SO4)2·6H2O) in buffer (50 mM […]
Tris, 50 mM NaCl, pH 7.5, 20° C). […]
data are provided as a Source Data file. […]
concentrations of 2OG; (b) hydroxylation rates used to determine kinetic parameters of FIH for 2OG; (c) time […]
3-methyl-2OG (1); (d) hydroxylation rates used to determine kinetic parameters of FIH for 1; (e) time course of […]
2OG (12); (f) hydroxylation rates used to determine kinetic parameters of FIH for 12; (g) time course of the FIH- […]
(h) hydroxylation rates used to determine kinetic parameters of FIH for 14; (i) time course of the FIH-catalyzed […]
(carboxycarbonyl)cyclopentane-1-carboxylic acid (22); (j) hydroxylation rates used to determine kinetic parameters of FIH for 22.
Supplementary Figure 6. Hydroxylation rates of FIH-catalyzed CA1-20 hydroxylations used to determine kinetic parameters for 2OG derivatives (continues on the following page). Maximum velocities (vapp ) and […]
ammonium iron(II) sulfate hexahydrate (FAS, (NH4)2Fe(SO4)2·6H2O) in buffer (50 mM Tris, 50 mM NaCl, pH […]
Source data are provided as a Source […]
of 2OG; (b) hydroxylation rates used to determine kinetic parameters of FIH for 2OG; (c) time course of the FIH-catalyzed hydroxylation reaction of the CA1-20 peptide for the shown concentrations of 3-methyl-2OG (1); (d) hydroxylation rates used to determine kinetic parameters of FIH for 1; (e) time course of the FIH -catalyzed hydroxylation reaction of the CA 1-20 peptide for the shown concentrations of 4 -methyl-2OG (12); (f) hydroxylation rates used to determine kinetic parameters of FIH for 12; (g) time course of the FIH-catalyzed hydroxylation reaction of the CA1-20 peptide for the shown concentrations of 4-ethyl-2OG (14); (h) hydroxylation rates used to determine kinetic parameters of FIH for 14; (i) time course of the FIH-catalyzed hydroxylation reaction of the CA1-20 peptide for the shown concentrations of 3-(carboxycarbonyl)cyclopentane-1-carboxylic acid (22); (j) hydroxylation rates used to determine kinetic parameters of FIH for 22.

**Q.** With `O=C(O)CCC(=O)C(=O)O` [2OG, 2-Oxoglutarate] as the compound, how does the “substrate hydroxylation (% conversion)” value ([1]; 0 min) read?
**A.** The value was 11.5964 and 13.5396 and 14.72.

**Q.** And the “substrate hydroxylation (% conversion)” value ([1]; 0.2395 min)?
**A.** Its value is 24.7804 and 23.3024 and 25.6576.

**Q.** And the “substrate hydroxylation (% conversion)” value ([1]; 0.479333 min)?
**A.** The value was 35.8187 and 32.4008 and 35.6628.

**Q.** What about the “substrate hydroxylation (% conversion)” value ([1]; 0.720167 min) of the same compound?
**A.** Its value is 44.676 and 40.8832 and 43.8025.

**Q.** What about the “substrate hydroxylation (% conversion)” value ([1]; 0.958667 min) of the same compound?
**A.** Its value is 52.6778 and 47.8294 and 50.9098.

**Q.** What about the “substrate hydroxylation (% conversion)” value ([1]; 1.19933 min) of the same compound?
**A.** The value was 56.9565.

**Q.** And the “substrate hydroxylation (% conversion)” value ([1]; 1.4395 min)?
**A.** Its value is 64.466 and 59.4055 and 62.1371.

**Q.** And the “substrate hydroxylation (% conversion)” value ([1]; 1.6805 min)?
**A.** The value was 68.74 and 63.8072 and 66.578.

**Q.** And the “substrate hydroxylation (% conversion)” value ([1]; 1.9205 min)?
**A.** Its value is 72.4813 and 67.7693 and 70.3323.

**Q.** And the “substrate hydroxylation (% conversion)” value ([1]; 2.1615 min)?
**A.** The value was 76.0778 and 71.4186 and 73.3987.

**Q.** What about the “substrate hydroxylation (% conversion)” value ([1]; 2.40217 min) of the same compound?
**A.** The value was 79.1496 and 73.9261 and 76.0106.

**Q.** And the “substrate hydroxylation (% conversion)” value ([1]; 2.64367 min)?
**A.** The value was 81.3261 and 76.569 and 78.5159.

**Q.** And the “substrate hydroxylation (% conversion)” value ([1]; 2.88417 min)?
**A.** The value was 84.0687 and 78.7132 and 80.7199.

**Q.** And the “substrate hydroxylation (% conversion)” value ([1]; 3.1255 min)?
**A.** Its value is 85.6054 and 80.8971 and 82.7315.

**Q.** And the “substrate hydroxylation (% conversion)” value ([1]; 3.3665 min)?
**A.** The value was 87.1073 and 82.6984 and 84.48.

**Q.** And the “substrate hydroxylation (% conversion)” value ([1]; 3.60917 min)?
**A.** Its value is 88.317 and 83.5071 and 85.4213.

**Q.** And the “substrate hydroxylation (% conversion)” value ([1]; 3.84967 min)?
**A.** The value was 89.8726 and 80.8464 and 84.2899.

**Q.** With `CCC(CC(=O)C(=O)O)C(=O)O` (stereo not drawn) [compound 14, 4-ethyl-2OG] as the compound, how does the “SPE-MS determined concentration of hydroxylated HIF-1a peptide” value (from here on “SPE-MS determined concentration”) ([2]; 0.5 uM compound 14, time 4.89717 min) read?
**A.** The value was 0.05875 µM and 0.09521 µM and 0.09669 µM.

**Q.** And the “SPE-MS determined concentration” value ([2]; 0.5 uM compound 14, time 5.5955 min)?
**A.** Its value is 0.06431 µM and 0.101 µM and 0.1081 µM.

**Q.** And the “SPE-MS determined concentration” value ([2]; 0.5 uM compound 14, time 6.29533 min)?
**A.** The value was 0.06659 µM and 0.1029 µM and 0.1101 µM.

**Q.** And the “SPE-MS determined concentration” value ([2]; 1 uM compound 14, time 4.19733 min)?
**A.** The value was 0.088 µM and 0.1147 µM.

**Q.** And the “SPE-MS determined concentration” value ([2]; 1 uM compound 14, time 4.89717 min)?
**A.** Its value is 0.1407 µM and 0.1033 µM and 0.1222 µM.

**Q.** What about the “SPE-MS determined concentration” value ([2]; 1 uM compound 14, time 5.5955 min) of the same compound?
**A.** The value was 0.152 µM and 0.1039 µM and 0.1267 µM.

**Q.** What about the “SPE-MS determined concentration” value ([2]; 1 uM compound 14, time 6.29533 min) of the same compound?
**A.** The value was 0.1529 µM and 0.1148 µM and 0.1306 µM.

**Q.** What about the “SPE-MS determined concentration” value ([2]; 2 uM compound 14, time 4.89717 min) of the same compound?
**A.** The value was 0.1353 µM and 0.1702 µM and 0.1718 µM.

**Q.** What about the “SPE-MS determined concentration” value ([2]; 2 uM compound 14, time 5.5955 min) of the same compound?
**A.** The value was 0.1467 µM and 0.176 µM and 0.1861 µM.

**Q.** And the “SPE-MS determined concentration” value ([2]; 2 uM compound 14, time 6.29533 min)?
**A.** The value was 0.1606 µM and 0.183 µM and 0.1888 µM.

**Q.** And the “SPE-MS determined concentration” value ([2]; 4 uM compound 14, time 4.89717 min)?
**A.** Its value is 0.1784 µM and 0.2029 µM and 0.2431 µM.

**Q.** And the “SPE-MS determined concentration” value ([2]; 4 uM compound 14, time 5.5955 min)?
**A.** The value was 0.2027 µM and 0.2144 µM and 0.2572 µM.

**Q.** And the “SPE-MS determined concentration” value ([2]; 4 uM compound 14, time 6.29533 min)?
**A.** Its value is 0.2105 µM and 0.2205 µM and 0.2672 µM.

**Q.** What about the “SPE-MS determined concentration” value ([2]; 8 uM compound 14, time 4.89717 min) of the same compound?
**A.** The value was 0.2053 µM and 0.2339 µM and 0.2323 µM.

**Q.** What about the “SPE-MS determined concentration” value ([2]; 8 uM compound 14, time 5.5955 min) of the same compound?
**A.** The value was 0.2224 µM and 0.2567 µM and 0.2571 µM.

**Q.** What about the “SPE-MS determined concentration” value ([2]; 8 uM compound 14, time 6.29533 min) of the same compound?
**A.** The value was 0.236 µM and 0.2596 µM and 0.2659 µM.

**Q.** What about the “SPE-MS determined concentration” value ([2]; 16 uM compound 14, time 4.89717 min) of the same compound?
**A.** The value was 0.2173 µM and 0.2363 µM and 0.2445 µM.

**Q.** And the “SPE-MS determined concentration” value ([2]; 16 uM compound 14, time 5.5955 min)?
**A.** The value was 0.234 µM and 0.2621 µM and 0.2714 µM.

**Q.** And the “SPE-MS determined concentration” value ([2]; 16 uM compound 14, time 6.29533 min)?
**A.** Its value is 0.2514 µM and 0.2668 µM and 0.2925 µM.

**Q.** What about the “SPE-MS determined concentration” value ([2]; 32 uM compound 14, time 4.89717 min) of the same compound?
**A.** The value was 0.2305 µM and 0.2331 µM and 0.2603 µM.

**Q.** And the “SPE-MS determined concentration” value ([2]; 32 uM compound 14, time 5.5955 min)?
**A.** The value was 0.2574 µM and 0.2518 µM and 0.275 µM.

**Q.** What about the “SPE-MS determined concentration” value ([2]; 32 uM compound 14, time 6.29533 min) of the same compound?
**A.** The value was 0.2755 µM and 0.2695 µM and 0.2898 µM.
